Test results taken from paper PMC8210318.
No constants are given. Whether binding was seen depends on the method and setting.

Chains of the proteins cited; added tags and fusions are not shown.
UniProt P0AGE0: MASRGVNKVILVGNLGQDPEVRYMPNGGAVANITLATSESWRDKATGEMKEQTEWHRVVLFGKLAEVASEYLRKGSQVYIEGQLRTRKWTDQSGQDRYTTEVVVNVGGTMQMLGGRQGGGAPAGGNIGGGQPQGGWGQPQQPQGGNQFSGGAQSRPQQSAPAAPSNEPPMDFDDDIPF

Tests used:
[1] = target: N-HelQ, N-terminal HelQ fragment (amino acids 1-240) (human) (UniProt Q8TDG4); experiment: AUC; analytical ultra-centrifugation of N-HelQ, mean mass over three conditions; both purified
[2] = target: E. coli SSB (E. coli) (UniProt P0AGE0); experiment: native gel or EMSA; super-shift EMSA: RPA (or E. coli SSB) pre-incubated with fork-2 DNA (25 nM) at 37°C, then HelQ or N-HelQ added; buffer HB (10 mM Tris pH 7.5, 50 ug/ml BSA, 5% glycerol), 25 mM DTT; 5% acrylamide TBE gel; both purified

Row | binding [1] | binding [2] | Binder
1 | no binding |  | N-HelQ, N-terminal HelQ fragment (amino acids 1-240) (domain or fragment, UniProt Q8TDG4 1-240) MDECGSRIRRRVSLPKRNRPSLGCIFGAPTAAELVPGDEGKEEEEMVAENRRRKTAGVLPVEVQPLLLSDSPECLVLGGGDTNPDLLRHMPTDRGVGDQPNDSEVDMFGDYDSFTENSFIAQVDDLEQKYMQLPEHKKHATDFATENLCSESIKNKLSITTIGNLTELQTDKHTENQSGYEGVTIEPGADLLYDVPSSQAIYFENLQNSSNDLGDHSMKERDWKSSSHNTVNEELPHNCI
2 |  | no binding | HelQ helicase, full length, human (enzyme, UniProt Q8TDG4 1-1101) MDECGSRIRRRVSLPKRNRPSLGCIFGAPTAAELVPGDEGKEEEEMVAENRRRKTAGVLPVEVQPLLLSDSPECLVLGGGDTNPDLLRHMPTDRGVGDQPNDSEVDMFGDYDSFTENSFIAQVDDLEQKYMQLPEHKKHATDFATENLCSESIKNKLSITTIGNLTELQTDKHTENQSGYEGVTIEPGADLLYDVPSSQAIYFENLQNSSNDLGDHSMKERDWKSSSHNTVNEELPHNCIEQPQQNDESSSKVRTSSDMNRRKSIKDHLKNAMTGNAKAQTPIFSRSKQLKDTLLSEEINVAKKTVESSSNDLGPFYSLPSKVRDLYAQFKGIEKLYEWQHTCLTLNSVQERKNLIYSLPTSGGKTLVAEILMLQELLCCRKDVLMILPYVAIVQEKISGLSSFGIELGFFVEEYAGSKGRFPPTKRREKKSLYIATIEKGHSLVNSLIETGRIDSLGLVVVDELHMIGEGSRGATLEMTLAKILYTSKTTQIIGMSATLNNVEDLQKFLQAEYYTSQFRPVELKEYLKINDTIYEVDSKAENGMTFSRLLNYKYSDTLKKMDPDHLVALVTEVIPNYSCLVFCPSKKNCENVAEMICKFLSKEYLKHKEKEKCEVIKNLKNIGNGNLCPVLKRTIPFGVAYHHSGLTSDERKLLEEAYSTGVLCLFTCTSTLAAGVNLPARRVILRAPYVAKEFLKRNQYKQMIGRAGRAGIDTIGESILILQEKDKQQVLELITKPLENCYSHLVQEFTKGIQTLFLSLIGLKIATNLDDIYHFMNGTFFGVQQKVLLKEKSLWEITVESLRYLTEKGLLQKDTIYKSEEEVQYNFHITKLGRASFKGTIDLAYCDILYRDLKKGLEGLVLESLLHLIYLTTPYDLVSQCNPDWMIYFRQFSQLSPAEQNVAAILGVSESFIGKKASGQAIGKKVDKNVVNRLYLSFVLYTLLKETNIWTVSEKFNMPRGYIQNLLTGTASFSSCVLHFCEELEEFWVYRALLVELTKKLTYCVKAELIPLMEVTGVLEGRAKQLYSAGYKSLMHLANANPEVLVRTIDHLSRRQAKQIVSSAKMLLHEKAEALQEEVEELLRLPSDFPGAVASSTDKA
